PubChem BioAssay AID1259425, University of Nebraska Medical Center – 2018
Test: 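Compare each knockdown with KSR1 silencing using changes in marker transcripts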 (primary screen). System: HCT116 human colon cancer cells. Reagents: siRNA pool against human genes, 50 nM siRNA. Read-out: 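After 50 nM siRNA pool, branched-DNA assay measures six marker transcripts per well, minus blank, normalised to the geometric mean of two housekeeping transcripts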. Reading the numbers: BNIP3L mRNA: higher = more BNIP3L transcript after knockdown.
This is a random part of about 14,000 reagents tested. Not all columns of the deposit are shown. Not given: the time to read-out.

{"gene": "PLEKHM1 (GeneID 9842)", "PubChem SID": "SID363999113", "BNIP3L mRNA, set 1": 0.151}
{"gene": "WIF1 (GeneID 11197)", "PubChem SID": "SID363997890", "BNIP3L mRNA, set 1": 0.116}
{"gene": "TRIM25 (GeneID 7706)", "PubChem SID": "SID363996018", "BNIP3L mRNA, set 1": 0.118}
{"gene": "ALDH5A1 (GeneID 7915)", "PubChem SID": "SID363992377", "BNIP3L mRNA, set 1": 0.139}
{"gene": "AGFG1 (GeneID 3267)", "PubChem SID": "SID363995481", "BNIP3L mRNA, set 1": 0.881}
{"gene": "FAIM2 (GeneID 23017)", "PubChem SID": "SID363998218", "BNIP3L mRNA, set 1": 0.0869}
{"gene": "TFE3 (GeneID 7030)", "PubChem SID": "SID363997317", "BNIP3L mRNA, set 1": 0.0887}
{"gene": "SLC5A7 (GeneID 60482)", "PubChem SID": "SID364002196", "BNIP3L mRNA, set 1": 0.151}
{"gene": "PPM1E (GeneID 22843)", "PubChem SID": "SID363999187", "BNIP3L mRNA, set 1": 0.074}
{"gene": "IL13RA2 (GeneID 3598)", "PubChem SID": "SID363991956", "BNIP3L mRNA, set 1": 0.0849}
{"gene": "GREM1 (GeneID 26585)", "PubChem SID": "SID363998479", "BNIP3L mRNA, set 1": 0.0512}
{"gene": "ABHD16A (GeneID 7920)", "PubChem SID": "SID364002053", "BNIP3L mRNA, set 1": 0.0629}
{"gene": "CD7 (GeneID 924)", "PubChem SID": "SID363996968", "BNIP3L mRNA, set 1": 0.124}
{"gene": "GAGE12I (GeneID 26748)", "PubChem SID": "SID363992737", "BNIP3L mRNA, set 1": 0.189}
{"gene": "EIF6 (GeneID 3692)", "PubChem SID": "SID363993413", "BNIP3L mRNA, set 1": 0.158}
{"gene": "TGFB3 (GeneID 7043)", "PubChem SID": "SID363994361", "BNIP3L mRNA, set 1": 0.179}
{"gene": "CTSE (GeneID 1510)", "PubChem SID": "SID363993123", "BNIP3L mRNA, set 1": 0.0128}
{"gene": "TAMALIN (GeneID 160622)", "PubChem SID": "SID364004940", "BNIP3L mRNA, set 1": 0.0518}
{"gene": "OR5P2 (GeneID 120065)", "PubChem SID": "SID364004773", "BNIP3L mRNA, set 1": 0.197}

2 consecutive records from above, for reference:
{"gene": "PPM1E (GeneID 22843)", "PubChem SID": "SID363999187", "BNIP3L mRNA, set 1": 0.074}
{"gene": "IL13RA2 (GeneID 3598)", "PubChem SID": "SID363991956", "BNIP3L mRNA, set 1": 0.0849}
